Values from PubChem BioAssay AID1053208 (Peter MacCallum Cancer Centre, 2014).
The deposit covers about 17,000 reagents; shown is a part drawn at random. In the full data, 788 (4.7%) got an active call. 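Calls rest on z-score classes alone; an extra cut-off of viability at most 70% of control was not applied to them.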 Further read-outs or replicates are left out here. No sequences are given here.

Assay: 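Genes whose silencing cuts survival of bone tumour cells only with doxorubicin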 (primary screen)
System: mouse osteosarcoma cells, early-passage culture from an engineered mouse model of fibroblastic bone tumour
Reagent: siRNA pool against mouse genes, 40 nM
Timing: about 120 h (48 h before drug, then 72 h with drug)
Conditions: doxorubicin 100 nM for 72 h, roughly 30-40% inhibitory dose
Measured: 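Viability read as ATP luminescence after 72 h of 100 nM doxorubicin or none, duplicate wells averaged, scaled to non-targeting siRNA, then expressed as robust z-scores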
Reading the numbers: viability z-score with doxorubicin: higher = more viable cells under doxorubicin; viability z-score without drug: higher = more viable cells with knock-down alone
Active means: 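a pool counts as active when its viability z-score with doxorubicin is -2 or below and its z-score without drug lies between -2 and 2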

Target gene | PubChem SID | combined z-score class | viability z-score with doxorubicin | viability z-score without drug | call
Caml | SID152306213 | no change with or without drug | -0.22 | 0 | inactive
Krt33a | SID152282258 | no change with or without drug | -0.9 | 0.84 | inactive
Aco2 | SID152334142 | no change with or without drug | -0.56 | 0 | inactive
Slc19a3 | SID152262331 | low cell count with and without drug | -4.27 | -3.2 | inactive
Krt18 | SID152290050 | no change with or without drug | -0.11 | 0.34 | inactive
Fgfbp1 | SID152271827 | no change with or without drug | 0.22 | -0.51 | inactive
Ppp4r1 | SID152284069 | no change with or without drug | 1.35 | 0.51 | inactive
Antxrl | SID152289073 | no change with or without drug | 0.11 | 0.51 | inactive
Ocrl | SID152274136 | no change with or without drug | -0.45 | -1.35 | inactive
Abtb1 | SID152295749 | no change with or without drug | 0.9 | 1.52 | inactive
Nfu1 | SID152322301 | no change with or without drug | 1.69 | 1.52 | inactive
Pepd | SID152267495 | no change with or without drug | -1.12 | 0.51 | inactive
Pop7 | SID152313565 | no change with or without drug | 0.9 | 0.84 | inactive
Myh4 | SID152271436 | no change with or without drug | 0.67 | 0.51 | inactive
Ces2b | SID152309808 | no change with or without drug | 0.22 | -0.17 | inactive
Krtap19-3 | SID152306133 | no change with or without drug | -1.24 | -0.17 | inactive
Vmn1r70 | SID152337802 | no change with or without drug | 0.45 | 1.01 | inactive
Padi4 | SID152278503 | no change with or without drug | 0.67 | 0.84 | inactive
Trim11 | SID152303760 | high cell count with doxorubicin only | 2.25 | 0.84 | inactive

Next part, starting with the last 2 of the part before.
Target gene | PubChem SID | combined z-score class | viability z-score with doxorubicin | viability z-score without drug | call
Padi4 | SID152278503 | no change with or without drug | 0.67 | 0.84 | inactive
Trim11 | SID152303760 | high cell count with doxorubicin only | 2.25 | 0.84 | inactive
Wfikkn2 | SID152264575 | no change with or without drug | -0.67 | -0.51 | inactive
Stap1 | SID152286420 | no change with or without drug | -0.67 | 0.17 | inactive
Ip6k3 | SID152305423 | no change with or without drug | -0.45 | -1.35 | inactive
Or8g26 | SID152286463 | low cell count with doxorubicin only | -2.14 | -1.01 | active
Or5ae1 | SID152324038 | no change with or without drug | 0.67 | -1.52 | inactive
Puf60 | SID152294425 | high cell count without drug only | -0.79 | 2.19 | inactive
Mtch1 | SID152335343 | no change with or without drug | -0.45 | 0.67 | inactive
Or1ab2 | SID152296005 | no change with or without drug | 0 | -0.17 | inactive
Uba6 | SID152270790 | no change with or without drug | 0.22 | 0.17 | inactive
Phlda3 | SID152287278 | no change with or without drug | 0.34 | -0.51 | inactive
Mthfd1 | SID152276923 | no change with or without drug | 0.56 | -1.18 | inactive
Klc2 | SID152286328 | no change with or without drug | -1.35 | 1.35 | inactive
Dhrs11 | SID152320996 | no change with or without drug | -0.22 | -0.84 | inactive
Irs1 | SID152317596 | no change with or without drug | 1.12 | 0 | inactive
Hmgb1 | SID152283805 | no change with or without drug | -0.34 | -0.51 | inactive
